Laboratory results taken from patent US20260015581A1, “METHODS FOR THE PRODUCTION OF RETINAL CELLS” (MIAMI UNIVERSITY, priority 2018, published 2026).
At least one compound was matched to its structure with a doubt left. Some compounds share one wording; it may come from a single statement.

System: PGP1-derived RPE
Test: Small molecule screen for reprogramming of PGP1-derived RPE to neural retina (induction of fluorescent reporter expression)
Settings: Selleck Chemicals Epigenetic Compounds Library L1900; 40 μM

## CCS(=O)(=O)Nc1ccc2c(c1)/C(=C(/Nc1ccc(CN3CCCCC3)cc1)c1ccccc1)C(=O)N2 [Hesperadin]
  induction of Cerulean expression in PGP1-derived RPE: showed evidence of inducing Cerulean expression
